The results in this text go back to PMC7346168.

For assay [1], the target named is T1, 2-cysteine peroxiredoxin A, wild type (2-CysPRXA WT) (Arabidopsis) (UniProt Q96291).
T1 sequence: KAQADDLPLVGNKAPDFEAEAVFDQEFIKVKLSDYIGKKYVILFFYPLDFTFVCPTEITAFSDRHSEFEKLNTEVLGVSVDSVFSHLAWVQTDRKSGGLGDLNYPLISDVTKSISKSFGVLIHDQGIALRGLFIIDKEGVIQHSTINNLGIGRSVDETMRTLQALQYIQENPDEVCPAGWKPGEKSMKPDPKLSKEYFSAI
The assay is described as follows: affinity purification with mass spectrometry; oxidizing: his6-tagged 2-CysPRXA variant (3 mg) on Ni-NTA-agarose pretreated with 1 mM H2O2; leaf extract (50 mg protein) made with 1 mM H2O2; 50 mM HEPES pH 8.0, 1 h, 4 °C; stepwise elution with 1 M NaCl, 10 mM DTT, 250 mM imidazole; hits not found on the column without 2-CysPRX; only the target purified.

Assay [2] concerns the target T2, 2-CysPRXA C54D (pseudo-hyperoxidized variant) (Arabidopsis) (UniProt Q96291).
T2 sequence: T1 sequence with C54D
The assay is described as follows: affinity purification with mass spectrometry; same pull down as a1 and a2, hits compiled from the results with all variants, redox and elution conditions; the redox condition is not told for the hit; only the target purified.

Numbering of substitutions follows the chain as printed. Results are given in words; binding and its absence hold for the method and conditions named. Binding seen in cells or lysates may run through a third protein. Here binding means that the protein was enriched with, or labelled near, the bait; the list need not be complete. For part of these data: Where a sequence is shown, tags or fusion partners need not be part of it.

B1: HTPA synthase 2 (protein, UniProt Q9FVC8 40-365)
chain: AVVPNFHLPMRSLEVKNRTNTDDIKALRVITAIKTPYLPDGRFDLEAYDDLVNIQIQNGAEGVIVGGTTGEGQLMSWDEHIMLIGHTVNCFGGSIKVIGNTGSNSTREAIHATEQGFAVGMHAALHINPYYGKTSIEGLIAHFQSVLHMGPTIIYNVPGRTGQDIPPRAIFKLSQNPNLAGVKECVGNKRVEEYTENGVVVWSGNDDECHDSRWDYGATGVISVTSNLVPGLMRKLMFEGRNSSLNSKLLPLMAWLFHEPNPIGINTALAQLGVSRPVFRLPYVPLPLSKRLEFVKLVKEIGREHFVGEKDVQALDDDDFILIGRY
With B1, the binding result in assay [1] is listed as “binds”.

B2: α-GLUCAN WATER DIKINASE 1 (protein, UniProt Q9SAC6 76-1399)
chain: VLAMDPQAAEKFSLDGNIDLLVEVTSTTVREVNIQIAYTSDTLFLHWGAILDNKENWVLPSRSPDRTQNFKNSALRTPFVKSGGNSHLKLEIDDPAIHAIEFLIFDESRNKWYKNNGQNFHINLPTERNVKQNVSVPEDLVQIQAYLRWERKGKQMYNPEKEKEEYEAARTELREEMMRGASVEDLRAKLLKKDNSNESPKSNGTSSSGREEKKKVSKQPERKKNYNTDKIQRKGRDLTKLIYKHVADFVEPESKSSSEPRSLTTLEIYAKAKEEQETTPVFSKKTFKLEGSAILVFVTKLSGKTKIHVATDFKEPVTLHWALSQKGGEWLDPPSDILPPNSLPVRGAVDTKLTITSTDLPSPVQTFELEIEGDSYKGMPFVLNAGERWIKNNDSDFYVDFAKEEKHVQKDYGDGKGTAKHLLDKIADLESEAQKSFMHRFNIAADLVDEAKSAGQLGFAGILVWMRFMATRQLVWNKNYNVKPREISKAQDRLTDLLQDVYASYPEYRELLRMIMSTVGRGGEGDVGQRIRDEILVIQRKNDCKGGIMEEWHQKLHNNTSPDDVVICQALMDYIKSDFDLSVYWKTLNDNGITKERLLSYDRAIHSEPNFRGEQKDGLLRDLGHYMRTLKAVHSGADLESAIQNCMGYQDDGEGFMVGVQINPVSGLPSGYPDLLRFVLEHVEEKNVEPLLEGLLEARQELRPLLLKSHDRLKDLLFLDLALDSTVRTAIERGYEQLNDAGPEKIMYFISLVLENLALSSDDNEDLIYCLKGWQFALDMCKSKKDHWALYAKSVLDRSRLALASKAERYLEILQPSAEYLGSCLGVDQSAVSIFTEEIIRAGSAAALSSLVNRLDPVLRKTANLGSWQVISPVEVVGYVIVVDELLTVQNKTYDRPTIIVANRVRGEEEIPDGAVAVLTPDMPDVLSHVSVRARNGKICFATCFDSGILSDLQGKDGKLLSLQPTSADVVYKEVNDSELSSPSSDNLEDAPPSISLVKKQFAGRYAISSEEFTSDLVGAKSRNIGYLKGKVPSWVGIPTSVALPFGVFEKVISEKANQAVNDKLLVLKKTLDEGDQGALKEIRQTLLGLVAPPELVEELKSTMKSSDMPWPGDEGEQRWEQAWAAIKKVWASKWNERAYFSTRKVKLDHDYLCMAVLVQEVINADYAFVIHTTNPSSGDSSEIYAEVVKGLGETLVGAYPGRSLSFICKKNNLDSPLVLGYPSKPIGLFIRRSIIFRSDSNGEDLEGYAGAGLYDSVPMDEEDQVVLDYTTDPLITDLSFQKKVLSDIARAGDAIEKLYGTAQDIEGVIRDGKLYVVQTRPQV
For B2, the binding result in assay [2] is “binds”.

B3: NADPH-dependent thioredoxin reductase C (protein, UniProt O22229 68-529)
chain: ATANSPSSSSSGGEIIENVVIIGSGPAGYTAAIYAARANLKPVVFEGYQMGGVPGGQLMTTTEVENFPGFPDGITGPDLMEKMRKQAERWGAELYPEDVESLSVTTAPFTVQTSERKVKCHSIIYATGATARRLRLPREEEFWSRGISACAICDGASPLFKGQVLAVVGGGDTATEEALYLTKYARHVHLLVRRDQLRASKAMQDRVINNPNITVHYNTETVDVLSNTKGQMSGILLRRLDTGEETELEAKGLFYGIGHSPNSQLLEGQVELDSSGYVLVREGTSNTSVEGVFAAGDVQDHEWRQAVTAAGSGCIAALSAERYLTSNNLLVEFHQPQTEEAKKEFTQRDVQEKFDITLTKHKGQYALRKLYHESPRVILVLYTSPTCGPCRTLKPILNKVVDEYNHDVHFVEIDIEEDQEIAEAAGIMGTPCVQFFKNKEMLRTISGVKMKKEYREFIEANK
Turning to B3, the binding result in assay [1] is listed as “binds”.
